# Measurements: the supplement of paper PMC12067093, “Discovery and optimisation of a covalent ligand for TRIM25 and its application to targeted protein ubiquitination” (Chemical Science, 2025)
# Chains of the proteins cited; added tags and fusions are not shown. Lines headed by an entry give the natural chain unless they say otherwise; changes in a name come on top.
# UniProt O60942: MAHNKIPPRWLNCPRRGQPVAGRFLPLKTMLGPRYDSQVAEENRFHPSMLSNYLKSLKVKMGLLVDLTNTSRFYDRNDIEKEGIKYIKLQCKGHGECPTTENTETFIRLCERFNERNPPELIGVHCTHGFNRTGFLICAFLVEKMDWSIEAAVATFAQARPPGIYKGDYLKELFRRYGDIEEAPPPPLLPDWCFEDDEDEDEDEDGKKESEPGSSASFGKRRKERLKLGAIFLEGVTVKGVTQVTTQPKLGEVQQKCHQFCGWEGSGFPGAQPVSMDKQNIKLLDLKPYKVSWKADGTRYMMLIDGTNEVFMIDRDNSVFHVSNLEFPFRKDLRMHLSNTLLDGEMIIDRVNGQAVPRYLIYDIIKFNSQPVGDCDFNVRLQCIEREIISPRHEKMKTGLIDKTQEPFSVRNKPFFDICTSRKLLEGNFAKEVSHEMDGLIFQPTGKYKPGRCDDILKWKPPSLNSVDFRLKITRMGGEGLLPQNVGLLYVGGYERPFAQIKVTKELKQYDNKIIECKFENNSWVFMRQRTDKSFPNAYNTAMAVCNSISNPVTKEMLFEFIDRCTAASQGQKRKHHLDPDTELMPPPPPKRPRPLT
# UniProt Q9H4A4: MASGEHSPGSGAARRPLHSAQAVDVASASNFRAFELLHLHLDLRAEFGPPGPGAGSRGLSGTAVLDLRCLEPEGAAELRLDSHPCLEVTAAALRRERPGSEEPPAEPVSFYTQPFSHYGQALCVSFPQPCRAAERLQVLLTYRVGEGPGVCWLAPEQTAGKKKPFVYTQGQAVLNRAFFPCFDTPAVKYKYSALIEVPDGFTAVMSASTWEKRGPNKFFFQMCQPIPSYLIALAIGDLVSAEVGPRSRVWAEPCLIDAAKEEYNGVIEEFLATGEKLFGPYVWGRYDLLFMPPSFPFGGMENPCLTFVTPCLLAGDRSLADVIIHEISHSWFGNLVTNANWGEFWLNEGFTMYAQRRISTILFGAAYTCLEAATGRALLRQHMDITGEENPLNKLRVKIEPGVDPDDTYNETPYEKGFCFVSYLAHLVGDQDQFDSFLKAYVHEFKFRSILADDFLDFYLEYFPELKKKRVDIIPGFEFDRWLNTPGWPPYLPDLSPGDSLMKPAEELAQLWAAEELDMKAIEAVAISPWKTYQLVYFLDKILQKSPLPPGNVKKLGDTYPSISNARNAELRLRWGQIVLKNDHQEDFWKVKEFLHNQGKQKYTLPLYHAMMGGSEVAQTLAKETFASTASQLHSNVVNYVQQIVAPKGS
# UniProt P04843: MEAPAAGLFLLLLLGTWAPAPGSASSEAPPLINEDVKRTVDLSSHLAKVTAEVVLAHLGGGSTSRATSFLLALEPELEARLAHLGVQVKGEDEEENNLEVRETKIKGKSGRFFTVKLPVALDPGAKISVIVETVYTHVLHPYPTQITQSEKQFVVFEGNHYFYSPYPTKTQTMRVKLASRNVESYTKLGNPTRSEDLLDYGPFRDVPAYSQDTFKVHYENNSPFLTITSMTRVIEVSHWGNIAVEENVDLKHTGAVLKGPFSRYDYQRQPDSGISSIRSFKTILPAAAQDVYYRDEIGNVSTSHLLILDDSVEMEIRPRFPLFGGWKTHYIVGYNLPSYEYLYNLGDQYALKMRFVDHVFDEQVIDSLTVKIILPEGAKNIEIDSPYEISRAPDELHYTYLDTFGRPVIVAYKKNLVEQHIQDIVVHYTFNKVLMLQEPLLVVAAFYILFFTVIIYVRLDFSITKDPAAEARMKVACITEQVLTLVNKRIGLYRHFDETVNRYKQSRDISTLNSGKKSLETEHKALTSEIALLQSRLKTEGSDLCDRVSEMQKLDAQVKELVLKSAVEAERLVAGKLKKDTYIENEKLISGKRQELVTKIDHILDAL
# UniProt Q5VT52: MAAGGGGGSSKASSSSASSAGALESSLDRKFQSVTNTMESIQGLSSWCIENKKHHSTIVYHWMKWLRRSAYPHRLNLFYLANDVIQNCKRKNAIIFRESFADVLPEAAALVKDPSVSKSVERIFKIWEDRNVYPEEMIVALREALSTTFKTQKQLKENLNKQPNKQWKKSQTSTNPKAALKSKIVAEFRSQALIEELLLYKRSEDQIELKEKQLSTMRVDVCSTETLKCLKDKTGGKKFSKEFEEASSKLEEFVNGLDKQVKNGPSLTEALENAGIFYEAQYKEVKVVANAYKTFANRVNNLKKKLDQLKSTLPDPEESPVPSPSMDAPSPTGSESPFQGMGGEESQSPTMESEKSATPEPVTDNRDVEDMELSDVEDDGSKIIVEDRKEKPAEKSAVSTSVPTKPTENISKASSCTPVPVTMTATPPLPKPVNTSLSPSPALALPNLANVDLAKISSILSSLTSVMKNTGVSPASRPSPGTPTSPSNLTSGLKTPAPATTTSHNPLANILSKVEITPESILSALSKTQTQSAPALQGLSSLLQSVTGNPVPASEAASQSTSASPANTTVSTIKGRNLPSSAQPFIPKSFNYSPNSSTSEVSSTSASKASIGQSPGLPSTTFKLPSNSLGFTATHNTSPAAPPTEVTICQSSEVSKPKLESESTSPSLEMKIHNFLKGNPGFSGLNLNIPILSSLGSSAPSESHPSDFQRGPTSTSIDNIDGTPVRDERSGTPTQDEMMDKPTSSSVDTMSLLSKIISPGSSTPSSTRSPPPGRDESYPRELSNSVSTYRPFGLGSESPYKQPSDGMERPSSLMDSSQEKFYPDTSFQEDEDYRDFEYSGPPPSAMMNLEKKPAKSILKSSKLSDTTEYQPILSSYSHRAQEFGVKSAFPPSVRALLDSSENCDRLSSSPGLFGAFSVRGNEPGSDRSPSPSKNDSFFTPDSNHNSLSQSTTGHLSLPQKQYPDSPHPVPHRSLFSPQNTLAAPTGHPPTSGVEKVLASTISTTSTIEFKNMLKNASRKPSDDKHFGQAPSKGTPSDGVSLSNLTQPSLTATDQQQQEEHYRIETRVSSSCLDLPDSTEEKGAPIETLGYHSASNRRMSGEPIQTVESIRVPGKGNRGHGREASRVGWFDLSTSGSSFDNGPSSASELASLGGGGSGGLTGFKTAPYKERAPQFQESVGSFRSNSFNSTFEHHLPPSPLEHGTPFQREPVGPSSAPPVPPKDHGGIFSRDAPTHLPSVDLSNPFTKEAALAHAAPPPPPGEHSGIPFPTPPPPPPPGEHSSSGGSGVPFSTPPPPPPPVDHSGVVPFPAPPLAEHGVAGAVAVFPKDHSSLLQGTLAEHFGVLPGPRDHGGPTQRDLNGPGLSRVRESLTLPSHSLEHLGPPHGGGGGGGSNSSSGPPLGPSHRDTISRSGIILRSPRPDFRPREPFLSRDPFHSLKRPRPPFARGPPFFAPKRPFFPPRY
# UniProt P27694, whole entry, looked up: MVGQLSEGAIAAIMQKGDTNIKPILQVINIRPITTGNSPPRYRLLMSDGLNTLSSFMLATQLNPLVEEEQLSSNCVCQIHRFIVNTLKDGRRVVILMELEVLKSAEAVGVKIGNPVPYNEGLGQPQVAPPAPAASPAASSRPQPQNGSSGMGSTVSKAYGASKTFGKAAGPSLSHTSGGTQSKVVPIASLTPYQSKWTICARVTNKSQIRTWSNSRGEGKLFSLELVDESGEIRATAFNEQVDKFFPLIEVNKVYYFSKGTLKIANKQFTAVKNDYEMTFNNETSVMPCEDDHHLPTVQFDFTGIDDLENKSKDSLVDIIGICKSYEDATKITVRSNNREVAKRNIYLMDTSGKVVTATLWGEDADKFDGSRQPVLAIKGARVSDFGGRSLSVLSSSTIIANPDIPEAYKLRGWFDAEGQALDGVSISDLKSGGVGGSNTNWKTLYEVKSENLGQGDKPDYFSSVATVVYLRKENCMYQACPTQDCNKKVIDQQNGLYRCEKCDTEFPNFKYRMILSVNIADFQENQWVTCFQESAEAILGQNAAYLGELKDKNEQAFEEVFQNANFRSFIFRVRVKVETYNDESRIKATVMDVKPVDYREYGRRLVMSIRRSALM
# UniProt Q96EP0: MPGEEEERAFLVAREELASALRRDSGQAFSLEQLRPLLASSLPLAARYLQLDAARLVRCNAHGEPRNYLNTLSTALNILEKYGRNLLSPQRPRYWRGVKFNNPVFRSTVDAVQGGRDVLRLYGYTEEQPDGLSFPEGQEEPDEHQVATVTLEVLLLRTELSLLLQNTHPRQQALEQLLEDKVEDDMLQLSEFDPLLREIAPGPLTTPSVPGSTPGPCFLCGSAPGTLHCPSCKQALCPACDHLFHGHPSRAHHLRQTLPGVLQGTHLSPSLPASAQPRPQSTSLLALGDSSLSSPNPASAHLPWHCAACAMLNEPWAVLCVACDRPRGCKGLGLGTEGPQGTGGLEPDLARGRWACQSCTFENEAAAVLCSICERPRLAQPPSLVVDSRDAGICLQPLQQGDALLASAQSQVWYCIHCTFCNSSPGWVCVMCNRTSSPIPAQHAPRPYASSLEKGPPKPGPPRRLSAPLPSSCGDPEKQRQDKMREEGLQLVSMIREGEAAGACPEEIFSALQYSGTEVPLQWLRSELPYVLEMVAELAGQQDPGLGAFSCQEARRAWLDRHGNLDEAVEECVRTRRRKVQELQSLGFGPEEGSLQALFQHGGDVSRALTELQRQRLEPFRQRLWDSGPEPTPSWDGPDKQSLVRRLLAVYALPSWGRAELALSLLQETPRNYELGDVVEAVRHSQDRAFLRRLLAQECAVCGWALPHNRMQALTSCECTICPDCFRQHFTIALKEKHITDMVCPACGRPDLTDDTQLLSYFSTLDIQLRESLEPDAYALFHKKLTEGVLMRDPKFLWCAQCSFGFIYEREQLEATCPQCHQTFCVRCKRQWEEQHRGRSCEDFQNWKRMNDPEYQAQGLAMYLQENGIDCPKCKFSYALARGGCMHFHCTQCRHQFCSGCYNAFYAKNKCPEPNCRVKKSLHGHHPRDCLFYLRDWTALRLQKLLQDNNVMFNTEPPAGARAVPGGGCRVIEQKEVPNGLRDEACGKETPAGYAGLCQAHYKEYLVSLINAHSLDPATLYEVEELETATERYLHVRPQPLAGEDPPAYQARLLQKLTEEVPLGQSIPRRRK
# UniProt O75818: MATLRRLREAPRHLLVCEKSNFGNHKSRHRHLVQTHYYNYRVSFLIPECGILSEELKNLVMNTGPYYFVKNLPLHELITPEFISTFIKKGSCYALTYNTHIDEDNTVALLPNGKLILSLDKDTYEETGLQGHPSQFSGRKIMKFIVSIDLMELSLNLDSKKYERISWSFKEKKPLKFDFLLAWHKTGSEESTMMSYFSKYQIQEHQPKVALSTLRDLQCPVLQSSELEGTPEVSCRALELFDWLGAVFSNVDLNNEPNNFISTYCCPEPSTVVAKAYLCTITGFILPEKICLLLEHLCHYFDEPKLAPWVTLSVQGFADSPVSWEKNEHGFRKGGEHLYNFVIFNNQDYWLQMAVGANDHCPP
# UniProt P78346: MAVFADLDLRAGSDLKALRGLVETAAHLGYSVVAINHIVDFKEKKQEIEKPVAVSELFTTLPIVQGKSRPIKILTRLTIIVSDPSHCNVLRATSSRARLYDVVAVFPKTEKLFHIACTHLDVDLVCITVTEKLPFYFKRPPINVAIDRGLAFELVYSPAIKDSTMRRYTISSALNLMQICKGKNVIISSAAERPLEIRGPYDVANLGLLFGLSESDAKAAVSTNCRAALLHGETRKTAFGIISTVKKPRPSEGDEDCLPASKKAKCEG
# UniProt O43148, whole entry, looked up: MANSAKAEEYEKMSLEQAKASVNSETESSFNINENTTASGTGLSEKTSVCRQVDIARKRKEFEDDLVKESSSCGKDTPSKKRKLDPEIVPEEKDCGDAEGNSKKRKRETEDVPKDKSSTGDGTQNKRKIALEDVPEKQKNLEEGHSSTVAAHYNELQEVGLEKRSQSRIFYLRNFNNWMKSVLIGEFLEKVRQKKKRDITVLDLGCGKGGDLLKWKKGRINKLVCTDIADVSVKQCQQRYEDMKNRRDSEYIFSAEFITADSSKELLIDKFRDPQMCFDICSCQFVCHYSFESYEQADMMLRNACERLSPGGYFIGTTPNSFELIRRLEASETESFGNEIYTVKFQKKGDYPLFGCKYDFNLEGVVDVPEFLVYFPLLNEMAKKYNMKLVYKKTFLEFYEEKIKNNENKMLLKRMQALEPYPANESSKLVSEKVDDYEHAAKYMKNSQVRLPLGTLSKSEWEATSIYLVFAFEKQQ
# UniProt Q9NQG5: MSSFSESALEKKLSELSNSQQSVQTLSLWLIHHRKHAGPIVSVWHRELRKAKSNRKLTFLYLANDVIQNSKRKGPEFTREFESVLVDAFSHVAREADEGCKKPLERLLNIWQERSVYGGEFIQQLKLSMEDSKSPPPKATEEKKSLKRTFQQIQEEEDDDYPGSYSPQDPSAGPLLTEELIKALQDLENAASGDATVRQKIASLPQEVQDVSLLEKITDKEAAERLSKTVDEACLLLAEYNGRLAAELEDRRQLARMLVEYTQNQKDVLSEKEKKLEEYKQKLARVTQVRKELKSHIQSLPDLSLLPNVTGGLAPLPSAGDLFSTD
# The other results are listed elsewhere or left out.
# Compound: Cc1cc(ccc1-c1ccccc1)C(=O)N1CCCN(CC1)C(=O)CCl [compound 10]
# Test: probe-labelled cysteine peptide fold change vs DMSO (competition) (log2 fold change); higher = less target engagement (more negative = stronger competition)
# Conditions: 10 µM; THP-1; incubation time: 4 h
# 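Note: competitive profiling in live THP-1 cells: cysteine peptides tagged with an iodoacetamide desthiobiotin (IA-DTB) probe, intensity after compound treatment relative to DMSO-treated cells.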
row,Target,probe-labelled cysteine peptide fold change
1,RNF213_Q63HN8_4017_DPVCLPCDHVHCLR (UniProt Q63HN8),0.097
2,RNH1_P13489_38_LDDCGLTEAR (UniProt P13489),-0.188
3,RNH1_P13489_248_LGDVGMAELCPGLLHPSSR (UniProt P13489),0.0552
4,RNGTT_O60942_419_NKPFFDICTSR (UniProt O60942),-0.423
5,RPL37_P61927_37_CGYPAK (UniProt P61927),-0.122
6,RPL7_P18124_186_YGIICMEDLIHEIYTVGK (UniProt P18124),-0.0141
7,RNF214_Q8ND24_675_LVQPSELHPMACTHVLHK (UniProt Q8ND24),0.0646
8,RPL10_P27635_195_LIPDGCGVK (UniProt P27635),0.0278
9,RNH1_P13489_266_TLWIWECGITAK (UniProt P13489),0.0412
10,RNPEP_Q9H4A4_151_VGEGPGVCWLAPEQTAGK (UniProt Q9H4A4),0.219
11,RPN1_P04843_545_TEGSDLCDR (UniProt P04843),-0.0249
12,RPRD2_Q5VT52_903_ALLDSSENCDR (UniProt Q5VT52),-0.167
13,ROCK1_Q13464_1070_ELNDMQAQLVEECAHR (UniProt Q13464),-0.0113
14,RNF214_Q8ND24_99_NVHLEHSEQNPGSSAGDTSAAHQVVLGENLIATALCLSGSGSQSDLK (UniProt Q8ND24),-0.311
15,RNF213_Q63HN8_310_THCQEAETK (UniProt Q63HN8),-0.101
16,ROCK2_O75116_1277_GHEFIPTLYHFPTNCEACMK (UniProt O75116),-0.0306
17,RPA1_P27694_323_DSLVDIIGICK (UniProt P27694),0.177
18,ROCK2_O75116_1293_PLWHMFKPPPALECR (UniProt O75116),-0.152
19,RNF31_Q96EP0_986_EVPNGLRDEACGK (UniProt Q96EP0),0.0489

row,Target,probe-labelled cysteine peptide fold change
1,ROCK1_Q13464_1300_DMLLLACSQDEQKK (UniProt Q13464),-0.0886
2,RPL14_P50914_54_CMQLTDFILK (UniProt P50914),0.0152
3,RNF213_Q63HN8_3008_CSEEVSPMQLIK (UniProt Q63HN8),-0.261
4,RPP40_O75818_49_VSFLIPECGILSEELK (UniProt O75818),0.0474
5,RPL34_P49207_46_SACGVCPGR (UniProt P49207),-0.0589
6,RPP30_P78346_225_AAVSTNCR (UniProt P78346),-0.0798
7,RNF31_Q96EP0_898+901_HQFCSGCYNAFYAK (UniProt Q96EP0),-0.0769
8,RNF213_Q63HN8_1156_CVDSLLK (UniProt Q63HN8),-0.0256
9,RNMT_O43148_73_ESSSCGK (UniProt O43148),-0.293
10,RNF213_Q63HN8_700_TYTWLGALPVLHCCMELAPR (UniProt Q63HN8),0.146
11,RNH1_P13489_362_ELCQGLGQPGSVLR (UniProt P13489),0.185
12,RPL18A_Q02543_109_DLTTAGAVTQCYR (UniProt Q02543),0.0363
13,RNF213_Q63HN8_1985_LCVGIVASER (UniProt Q63HN8),0.0552
14,RPRD1B_Q9NQG5_234_TVDEACLLLAEYNGR (UniProt Q9NQG5),0.151
15,RPP25_Q9BUL9_16_VRSEEAPAGCGAEGGGPGSGPFADLAPGAVHMR (UniProt Q9BUL9),-0.0874
16,RPA1_P27694_200_WTICAR (UniProt P27694),0.0672
17,RNH1_P13489_323_SCSFTAACCSHFSSVLAQNR (UniProt P13489),0.304
18,RNH1_P13489_142_TLPTLQELHLSDNLLGDAGLQLLCEGLLDPQCR (UniProt P13489),0.328
19,RNH1_P13489_209_LESCGVTSDNCR (UniProt P13489),-0.223

# Same assay, conditions: 50 µM; THP-1; incubation time: 4 h
row,Target,probe-labelled cysteine peptide fold change
1,RNF213_Q63HN8_4017_DPVCLPCDHVHCLR (UniProt Q63HN8),-0.132
2,RNH1_P13489_38_LDDCGLTEAR (UniProt P13489),-0.197
3,RNH1_P13489_248_LGDVGMAELCPGLLHPSSR (UniProt P13489),-0.0858
4,RNGTT_O60942_419_NKPFFDICTSR (UniProt O60942),-0.891
5,RPL37_P61927_37_CGYPAK (UniProt P61927),-0.422
6,RPL7_P18124_186_YGIICMEDLIHEIYTVGK (UniProt P18124),0.174
7,RNF214_Q8ND24_675_LVQPSELHPMACTHVLHK (UniProt Q8ND24),0.0132
8,RPL10_P27635_195_LIPDGCGVK (UniProt P27635),-0.19
9,RNH1_P13489_266_TLWIWECGITAK (UniProt P13489),-0.0514
10,RNPEP_Q9H4A4_151_VGEGPGVCWLAPEQTAGK (UniProt Q9H4A4),0.282
11,RPN1_P04843_545_TEGSDLCDR (UniProt P04843),0.227
12,RPRD2_Q5VT52_903_ALLDSSENCDR (UniProt Q5VT52),-0.249
13,ROCK1_Q13464_1070_ELNDMQAQLVEECAHR (UniProt Q13464),-0.262
14,RNF214_Q8ND24_99_NVHLEHSEQNPGSSAGDTSAAHQVVLGENLIATALCLSGSGSQSDLK (UniProt Q8ND24),-0.262
15,RNF213_Q63HN8_310_THCQEAETK (UniProt Q63HN8),-0.406
16,ROCK2_O75116_1277_GHEFIPTLYHFPTNCEACMK (UniProt O75116),0.0283
17,RPA1_P27694_323_DSLVDIIGICK (UniProt P27694),0.183
18,ROCK2_O75116_1293_PLWHMFKPPPALECR (UniProt O75116),-0.362
19,RNF31_Q96EP0_986_EVPNGLRDEACGK (UniProt Q96EP0),-0.204

row,Target,probe-labelled cysteine peptide fold change
1,ROCK1_Q13464_1300_DMLLLACSQDEQKK (UniProt Q13464),-0.442
2,RPL14_P50914_54_CMQLTDFILK (UniProt P50914),-0.101
3,RNF213_Q63HN8_3008_CSEEVSPMQLIK (UniProt Q63HN8),-0.533
4,RPP40_O75818_49_VSFLIPECGILSEELK (UniProt O75818),0.381
5,RPL34_P49207_46_SACGVCPGR (UniProt P49207),-0.837
6,RPP30_P78346_225_AAVSTNCR (UniProt P78346),0.122
7,RNF31_Q96EP0_898+901_HQFCSGCYNAFYAK (UniProt Q96EP0),-0.572
8,RNF213_Q63HN8_1156_CVDSLLK (UniProt Q63HN8),0.09
9,RNMT_O43148_73_ESSSCGK (UniProt O43148),-0.271
10,RNF213_Q63HN8_700_TYTWLGALPVLHCCMELAPR (UniProt Q63HN8),-0.538
11,RNH1_P13489_362_ELCQGLGQPGSVLR (UniProt P13489),0.134
12,RPL18A_Q02543_109_DLTTAGAVTQCYR (UniProt Q02543),-0.00452
13,RNF213_Q63HN8_1985_LCVGIVASER (UniProt Q63HN8),0.195
14,RPRD1B_Q9NQG5_234_TVDEACLLLAEYNGR (UniProt Q9NQG5),0.279
15,RPP25_Q9BUL9_16_VRSEEAPAGCGAEGGGPGSGPFADLAPGAVHMR (UniProt Q9BUL9),-0.0494
16,RPA1_P27694_200_WTICAR (UniProt P27694),0.0446
17,RNH1_P13489_323_SCSFTAACCSHFSSVLAQNR (UniProt P13489),0.0048
18,RNH1_P13489_142_TLPTLQELHLSDNLLGDAGLQLLCEGLLDPQCR (UniProt P13489),0.336
19,RNH1_P13489_209_LESCGVTSDNCR (UniProt P13489),-0.206
